This assay is filed under the species Rattus norvegicus. Type of assay: functional, Striatum, Membrane.

Turning to `CC(C)NCC(O)COc1cccc2ccccc12` (racemic) [PROPRANOLOL], the Ki – broadly, the dissociation constant of the complex between target and ligand, obtained from inhibition or displacement – is more than 5 µM.

These data come from ChEMBL document CHEMBL1125639, “Synthesis and resolution of (+-)-7-chloro-8-hydroxy-1-(3'-iodophenyl)-3-methyl-2,3,4,5-tetrahydro- 1H-3- benzazepine (TISCH): a high affinity and selective iodinated ligand for CNS D1 dopamine receptor” (J Med Chem, 1991).
